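Phenotypic screen: M. tuberculosis growth, glucose 7H9 medium, 3 days; the read-out is not stated. Compounds at 50 µM. Higher reads as more growth inhibition (inferred: compounds with an IC50 in retests scored well above the rest). Of about 69,000 compounds tested this way, about 760 (1.1%) reached 50% or more in at least one test.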

Each number is a percent effect as filed.
How 0% and 100% were set is not recorded. Most values in the screen are low, and negative values occur.
Compounds were drawn at random from those tested, without regard to their results.
Two or more numbers in one place are separate tests of the same structure; such repeats can differ widely.

SMILES	Percent Effect
CCN(CC)CCn1cnc(-c2ccccc2)c1-c1cnc(C)s1	2.298 & 6.631
COC(=O)c1cccn1C1CCN(C(=O)c2cc(C)ccc2O)CC1	-9.751
Cc1cccc(C2CCCCN2C(=O)CCCS(C)(=O)=O)c1C (centres undefined)	12.31
O=C(Cc1cccc(F)c1)NCCNCC1CNc2ccnn2C1 (centres undefined)	6.788 & -4.653
CC(c1ccon1)N(C)C(=O)C1CCN(C2CCCCC2)CC1 (centres undefined)	25.64
Cn1c(CCNC(=O)C2CCCN(C3CCOCC3)C2)n[nH]c1=O (centres undefined)	26
Nc1ncnc2[nH]c(N3CCCCC3)nc12	48.51 & 31.44
CCOc1cccc(CNc2ccccc2C(=O)OC)c1O	2.429
[H][C@@]12CCN(Cc3sccc3C)[C@]1([H])CC[C@@H](C(=O)N1CCCO1)O2	0.2808 & 24.55
O=C(c1ccncc1)N1CCC(c2nc(O)cc(-c3cccnc3)n2)C1 (centres undefined)	18.06
Cc1ccc2cc(CN(C)Cc3ccncn3)c(=O)[nH]c2c1	0.01992 & -9.453
CCOc1ccc(CC(=O)N2CCN(c3nccn3C)CC2)cc1.Cl	10.39
CC(C)n1cnc2c1C(C(=O)N1CCCC1)N(S(C)(=O)=O)CC2 (centres undefined)	1.538 & -0.2704
COCCn1/c(=N\C(=O)CN(C)S(C)(=O)=O)sc2cc(Cl)ccc21	-37.51
Cc1ccc2c(c1)Oc1ncccc1C(=O)N2	17.27
CN1C(=O)C2(CCCN(C(=O)c3cccnc3O)C2)c2ccccc21 (centres undefined)	-7.913
CC(C)c1nnc(NC(=O)NCc2ccc(CO)c(F)c2)s1	-19.86
CO[C@H]1COCCN(C(=O)c2ccno2)C1	6.242 & -7.891
CCOC(=O)c1cc2c(=O)[nH]c(=O)n(CCc3ccccc3)c2nc1C	4.53
Cc1ccc(CN(C)C(=O)NCC(=O)NC(C)(C)C)s1	5.157
O=C(CN1C(=O)CCNC1=O)N1CCOC(c2ccc(Cl)c(Cl)c2)C1 (centres undefined)	-21.09
[H][C@@]12CCN(C(=O)c3c(C)noc3C)C[C@@]1([H])O[C@H](c1nccs1)C2	8.541
CC(=O)Nc1nc(C(=O)NCc2ccc(N3CCCCC3)cc2)cs1	5.694
COc1cc2nc3n(c(=O)c2cc1OC)CCN(C)CC3	2.837
CC(C)[C@H](NS(C)(=O)=O)C(=O)NCc1cc(-c2ccccc2)nn1C	-4.538
COc1ccc(C(C)Nc2cnn(C)c(=O)c2Cl)cc1OC (centres undefined)	-6.422
CNCC(=O)N1CCC(c2cccc(Oc3ccccc3)n2)CC1	-19.15
Cc1csc(C2CCCCN2C(=O)CCCn2cccn2)n1 (centres undefined)	-3.343
CCOc1ccnc(N2CCN(C(=O)c3cccnc3)CC2)n1	20.54
[H][C@@]12CCN(Cc3scnc3C)C[C@@]1([H])O[C@@H](c1ccncn1)C2	1.809
CN(C)CCN(Cc1cccnc1)C(=O)c1ccn(-c2ccccc2)n1	-10.89
O=C1CC(c2ccsc2)c2sc(C(=O)O)c(-c3ccccc3)c2N1 (centres undefined)	-8.494
CC(Cn1cccn1)NC(=O)CCc1ccc(S(N)(=O)=O)cc1 (centres undefined)	10.6
c1cncc(OC2CCN(CCn3cc4ccccc4n3)CC2)c1	11.24
CC(C)CCN1CCN(Cc2nc(C(C)C)no2)CC1	27.72 & 16.33
Cc1cc(C)n(CC2CN(CCOc3ccccc3C#N)CCO2)n1 (centres undefined)	31.39
COc1cccc(OCC2CCCN(C(=O)c3ccc(N)nc3)C2)c1 (centres undefined)	3.462
O=C(c1csc(C2CC2)n1)N1CCCC1Cn1cccn1 (centres undefined)	5.89
COC(=O)CNC(=O)CCc1cc(Cl)cs1	34.12
CC(Cc1cccc(F)c1)NCc1cnc(N2CCN(C)CC2)nc1 (centres undefined)	-19.2
CCc1nn(C)c(Cl)c1CN1CCCC2(CC1)CN(C)C(=O)O2 (centres undefined)	-29.89
NC(=O)C1CN(Cc2c(O)ccc3oc4c(c23)CCCC4)CCO1 (centres undefined)	-20.81
[H][C@@]12CC[C@H](Oc3cccc(F)c3)[C@]1([H])CN(C(=O)c1ccnnc1)C2	-0.8596
CC(=O)NCCCNCc1ccc(Cl)c2cccnc12	25.15
O=C(CSc1ccncc1)N1CCC2(CC1)c1ccccc1CC2O (centres undefined)	-14.72
CN(C)CCN1CCCC12CCN(C(=O)c1cccnc1)CC2.O=C(O)C(F)(F)F.O=C(O)C(F)(F)F	-11.45
c1ccc(CNc2nc(N3CCOCC3)nc3nccnc23)cc1	19.03 & 7.484
O=C(NCC(O)(c1cccs1)C1CC1)NC1CCCCC1 (centres undefined)	-52 & 1.623
COCCOC(=O)N1CCn2nc(CN(C)Cc3nccs3)cc2C1	-24.05 & -5.801
COCc1cccc(CNc2cnn(C(C)(C)C)c(=O)c2Cl)c1	16.98 & 9.172
CCn1cnnc1CNC(=O)N(C)Cc1ccc2c(c1)OCCO2	-11.69
O=C(O)C(F)(F)F.O=C1COC2(CCN(Cc3nccs3)CC2)CN1CC1CC1	-3.575 & 0.3381
CCN(CCS(=O)(=O)c1ccc(Cl)cc1)Cc1ccc(OC)c(OC)c1	15.74
O=C(O)C(F)(F)F.[H][C@@]12CCN(Cc3ccc(F)c(F)c3)[C@]1([H])CC[C@@H](C(=O)NCC1CC1)O2	29.2
CCC(=O)Nc1ccc(N2CCC(OC)CC2)c(C(F)(F)F)c1	26.62
COCC1CN(Cc2ccccn2)Cc2nn(C)cc21 (centres undefined)	-27.47
CC(C)(C)c1n[nH]c(C2CN(Cc3nnc(C4CC4)o3)CCO2)n1 (centres undefined)	4.48
Cc1cccc(CN2CCC(N(C)Cc3nnc(C4CC4)n3C)C2)c1 (centres undefined)	-5.032 & 21.95
CC(C)NC(=O)CNC(C)c1c(F)cccc1Cl (centres undefined)	-1.951
CSC(C)C(=O)N1CCN(CC(C)(C)O)CC1 (centres undefined)	44.49
Cc1ccc(CC(=O)N2CCN(CC(O)c3ccccc3)CC2)cn1 (centres undefined)	4.556
CC(C)C(=O)Nc1cccc(CNC(=O)CSCc2ccccn2)c1	8.214
CN(CCc1cn[nH]c1)C(=O)CCc1ccc(Cl)cc1	38.62
N#Cc1ccc(OCCOc2ccccc2C(=O)N2CCOCC2)cc1	5.442
N#Cc1ccccc1C(=O)Nc1cccc(CN2CCC(CO)CC2)c1	-7.436
O=C(CCC(=O)N1CCOCC1)NCc1cccnc1-n1cccn1	-7.429
Cc1oc(-c2ccco2)nc1CN1CCc2cnc(C(C)C)nc2C1	-14.41
CS(=O)(=O)N(Cc1ccon1)c1ccc2c(c1)OCO2	-2.309
Cn1ccnc1-c1ccc(NCC2COCCO2)nn1 (centres undefined)	-11.31
O[C@@H]1C[C@@H](c2nc(Cc3ccccc3)no2)N(Cc2ncc[nH]2)C1	-9.919 & -0.4276
Cc1ccc2c(c1)nc1n2[C@@H](CNC(=O)c2cccnc2)COC1	-17.53 & 39.02
CNS(=O)(=O)CC(=O)N1CCC(c2ccc(F)c(F)c2)CC1	-29.4 & 7.744
Cc1ccc(C)c(OCc2cc(C(=O)N(C)Cc3cnn(C)c3)no2)c1	-2.605
Cc1nc(Nc2ncc(C)s2)cc(C2CCCN2)n1.Cl (centres undefined)	33.19
Clc1cccc(-n2cnnn2)c1N1CCOCC1	1.352
Cc1nccc(CNC(=O)N2CCN(Cc3ccccc3)C[C@H]2C)n1	3.684
Cc1nc(NC(=O)CCN2C(=O)c3ccccc3NC2C(C)C)sc1C (centres undefined)	19.66
Cc1noc(C)c1S(=O)(=O)N(C)Cc1nn(C)c(Cl)c1Cl	-4.432
O=C(CN1CCc2cncnc2C1)NC1CCCCNC1=O (centres undefined)	-7.304 & -36.66
CC1(C)CC(N(Cc2ccncc2)Cc2cccnc2)CC(C)(C)N1.O=C(O)CC(O)(CC(=O)O)C(=O)O	12.18
NS(=O)(=O)NCC1(c2ccccc2Br)CC1	18.61
Cc1nc(CC(=O)NCc2csc(N3CCCC3)n2)cs1	22.28
Cc1ccn2ncc(C(=O)N3CCCC(c4noc(C)n4)C3)c2n1 (centres undefined)	-2.36
N#Cc1cccc(N2CCCC(CO)(Cc3ccccc3F)C2)n1 (centres undefined)	28.72
O=C(NC1CC1)C1CNCCN1C(=O)COc1ccc2c(c1)OCO2 (centres undefined)	8.624
Cc1cc(NCc2cc3n(n2)CCCN(S(C)(=O)=O)C3)ncn1	-15.73
COc1cccc2c1OCC(NCCc1cnn(-c3ccccc3)c1)C2 (centres undefined)	37.57
Cc1cc(CN2CCCC2)cc(Oc2ccc3c(c2)CC(CN)O3)c1 (centres undefined)	35.86 & 43.36
CCc1nc(C(=O)N2CCN(C)CC2C)nn1-c1ccccc1Cl (centres undefined)	-34.44
O=C(O)C(F)(F)F.[H][C@@]12CN(Cc3ccoc3)CCO[C@]1([H])CN(C(=O)CCc1ccccc1)C2	-0.3058
O=C(NCc1sc2ccccc2c1Cl)c1cc2n(n1)CCNC2	12.08

Once more, the final 6:

SMILES,Percent Effect
Cc1cc(NCc2cc3n(n2)CCCN(S(C)(=O)=O)C3)ncn1,-15.73
COc1cccc2c1OCC(NCCc1cnn(-c3ccccc3)c1)C2 (centres undefined),37.57
Cc1cc(CN2CCCC2)cc(Oc2ccc3c(c2)CC(CN)O3)c1 (centres undefined),35.86 & 43.36
CCc1nc(C(=O)N2CCN(C)CC2C)nn1-c1ccccc1Cl (centres undefined),-34.44
O=C(O)C(F)(F)F.[H][C@@]12CN(Cc3ccoc3)CCO[C@]1([H])CN(C(=O)CCc1ccccc1)C2,-0.3058
O=C(NCc1sc2ccccc2c1Cl)c1cc2n(n1)CCNC2,12.08

Data taken from ChEMBL document CHEMBL3988442, “University of Dundee, Small-Polar-MMV Screening Library” (2021).